# Assay results as given in doi:10.1101/2022.05.09.491192.
# The chains behind the UniProt entries cited, without tags or fusion partners.
# UniProt Q62441: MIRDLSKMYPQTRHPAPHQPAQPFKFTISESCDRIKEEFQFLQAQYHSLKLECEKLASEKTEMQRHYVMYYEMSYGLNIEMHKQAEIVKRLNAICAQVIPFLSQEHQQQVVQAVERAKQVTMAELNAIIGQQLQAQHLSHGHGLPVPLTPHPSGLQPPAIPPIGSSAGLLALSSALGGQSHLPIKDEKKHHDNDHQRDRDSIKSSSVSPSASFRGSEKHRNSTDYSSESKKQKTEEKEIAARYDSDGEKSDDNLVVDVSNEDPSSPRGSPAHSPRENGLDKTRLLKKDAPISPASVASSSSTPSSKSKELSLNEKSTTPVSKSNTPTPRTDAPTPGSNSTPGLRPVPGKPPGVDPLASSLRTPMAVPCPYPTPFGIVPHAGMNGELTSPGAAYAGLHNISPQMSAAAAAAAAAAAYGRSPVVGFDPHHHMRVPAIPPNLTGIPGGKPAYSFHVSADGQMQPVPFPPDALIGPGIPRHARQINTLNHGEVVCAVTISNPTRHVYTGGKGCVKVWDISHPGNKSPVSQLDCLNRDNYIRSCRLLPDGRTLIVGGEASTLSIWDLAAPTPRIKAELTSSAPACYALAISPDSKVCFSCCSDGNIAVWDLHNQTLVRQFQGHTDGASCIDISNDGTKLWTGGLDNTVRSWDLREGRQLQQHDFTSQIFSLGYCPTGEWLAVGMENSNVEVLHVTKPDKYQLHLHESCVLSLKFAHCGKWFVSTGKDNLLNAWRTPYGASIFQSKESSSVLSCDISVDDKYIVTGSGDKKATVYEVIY
# UniProt Q9ESP5: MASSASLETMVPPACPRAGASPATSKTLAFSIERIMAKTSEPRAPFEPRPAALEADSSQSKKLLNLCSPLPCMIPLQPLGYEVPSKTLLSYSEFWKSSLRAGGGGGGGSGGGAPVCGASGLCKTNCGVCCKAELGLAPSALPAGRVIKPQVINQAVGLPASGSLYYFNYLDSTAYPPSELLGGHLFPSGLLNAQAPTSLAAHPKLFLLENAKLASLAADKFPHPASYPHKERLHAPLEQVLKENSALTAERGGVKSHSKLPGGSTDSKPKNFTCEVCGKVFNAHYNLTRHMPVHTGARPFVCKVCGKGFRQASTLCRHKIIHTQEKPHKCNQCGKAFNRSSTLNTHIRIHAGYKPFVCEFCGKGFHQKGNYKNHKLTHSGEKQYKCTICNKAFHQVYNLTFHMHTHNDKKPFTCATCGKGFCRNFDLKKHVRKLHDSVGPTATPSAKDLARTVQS
# These are yes or no findings as the source states them, for the method shown. Binding seen in cells or lysates may run through a third protein. Some entries that bind do so weakly or less than the wild type.
# Biological target: full-length Flag-TLE4 (UniProt Q62441)
# Test: co-IP
substance,measurement,value
HA-FEZF2 (from UniProt Q9ESP5 1-455),binding,binds
